This note sets out measurements from article doi:10.1101/2023.12.05.570080.

Construct, isoform or probe ends are uncertain for at least one entry. At least one result comes from cells or an extract, where the contact may be indirect. The comparison behind a weaker result is the experiment's own reference, which may not be listed here. At least one verdict was read from the data and is not stated in words by the source. Protein sequences can lack the tags named with them.

Common to all, as to experiment: pull-down LC-MS/MS
What all share (settings): protein in an extract

The target of data set [1] is T1, MBD5 (Arabidopsis thaliana (cell culture)) (UniProt Q9SNC0).
T1 sequence (looked up, limits assumed): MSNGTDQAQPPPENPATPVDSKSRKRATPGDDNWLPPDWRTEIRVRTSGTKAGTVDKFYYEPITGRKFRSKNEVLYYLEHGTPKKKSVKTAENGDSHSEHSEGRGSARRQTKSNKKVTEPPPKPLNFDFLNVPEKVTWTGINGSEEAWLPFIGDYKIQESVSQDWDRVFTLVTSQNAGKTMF

For data set [2], the target named is T2, MBD6 (Arabidopsis thaliana (cell culture)) (UniProt Q9LTJ1).
T2 sequence (looked up, limits assumed): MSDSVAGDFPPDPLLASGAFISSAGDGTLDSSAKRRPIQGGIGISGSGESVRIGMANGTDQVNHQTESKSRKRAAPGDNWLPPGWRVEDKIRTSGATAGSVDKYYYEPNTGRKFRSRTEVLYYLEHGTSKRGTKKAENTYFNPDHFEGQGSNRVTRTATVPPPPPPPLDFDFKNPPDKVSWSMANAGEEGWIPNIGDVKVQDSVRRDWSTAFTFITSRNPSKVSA

The target in data set [3] is T3, VIM1 (Arabidopsis thaliana (cell culture)) (UniProt Q8VYZ0).
T3 sequence (looked up, limits assumed): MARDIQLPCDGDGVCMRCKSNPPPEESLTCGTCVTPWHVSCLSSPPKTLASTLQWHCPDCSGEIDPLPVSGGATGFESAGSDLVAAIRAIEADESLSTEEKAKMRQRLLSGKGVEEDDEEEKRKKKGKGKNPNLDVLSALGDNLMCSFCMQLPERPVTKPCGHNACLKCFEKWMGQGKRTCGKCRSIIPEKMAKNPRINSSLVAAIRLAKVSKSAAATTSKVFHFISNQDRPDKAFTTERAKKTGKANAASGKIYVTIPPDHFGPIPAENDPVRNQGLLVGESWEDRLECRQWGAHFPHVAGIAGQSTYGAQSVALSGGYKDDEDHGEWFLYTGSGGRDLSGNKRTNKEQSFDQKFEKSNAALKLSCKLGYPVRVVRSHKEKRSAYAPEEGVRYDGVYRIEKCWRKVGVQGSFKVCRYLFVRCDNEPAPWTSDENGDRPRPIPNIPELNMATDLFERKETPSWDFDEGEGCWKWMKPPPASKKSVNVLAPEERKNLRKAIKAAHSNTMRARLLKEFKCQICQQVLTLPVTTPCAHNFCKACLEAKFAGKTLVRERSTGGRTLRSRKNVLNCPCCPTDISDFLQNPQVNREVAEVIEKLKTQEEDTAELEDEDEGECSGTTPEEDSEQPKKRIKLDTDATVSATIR

The target of data set [4] is T4, SUVH4 (KYP) (Arabidopsis thaliana (cell culture)) (UniProt Q8GZB6).
T4 sequence (looked up, limits assumed): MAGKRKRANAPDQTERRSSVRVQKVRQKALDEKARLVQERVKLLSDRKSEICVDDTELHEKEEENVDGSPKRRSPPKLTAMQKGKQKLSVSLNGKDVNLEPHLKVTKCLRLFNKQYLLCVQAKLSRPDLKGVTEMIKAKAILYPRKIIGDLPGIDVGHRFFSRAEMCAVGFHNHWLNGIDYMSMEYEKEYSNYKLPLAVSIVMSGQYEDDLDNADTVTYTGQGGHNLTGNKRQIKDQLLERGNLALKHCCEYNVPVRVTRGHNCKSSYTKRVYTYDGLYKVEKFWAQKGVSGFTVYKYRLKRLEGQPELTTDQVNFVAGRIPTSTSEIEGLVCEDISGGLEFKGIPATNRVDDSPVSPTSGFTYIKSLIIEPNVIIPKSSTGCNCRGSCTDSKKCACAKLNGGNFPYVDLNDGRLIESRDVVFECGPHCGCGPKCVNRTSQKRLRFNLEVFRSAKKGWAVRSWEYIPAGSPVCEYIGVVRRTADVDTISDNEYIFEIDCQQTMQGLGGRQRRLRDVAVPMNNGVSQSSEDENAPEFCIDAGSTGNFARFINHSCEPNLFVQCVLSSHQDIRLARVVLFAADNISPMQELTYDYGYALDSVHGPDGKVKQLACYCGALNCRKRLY

For data set [5], the target named is T5, SUVH6 (Arabidopsis thaliana (cell culture)) (UniProt Q8VZ17).
T5 sequence (looked up, limits assumed): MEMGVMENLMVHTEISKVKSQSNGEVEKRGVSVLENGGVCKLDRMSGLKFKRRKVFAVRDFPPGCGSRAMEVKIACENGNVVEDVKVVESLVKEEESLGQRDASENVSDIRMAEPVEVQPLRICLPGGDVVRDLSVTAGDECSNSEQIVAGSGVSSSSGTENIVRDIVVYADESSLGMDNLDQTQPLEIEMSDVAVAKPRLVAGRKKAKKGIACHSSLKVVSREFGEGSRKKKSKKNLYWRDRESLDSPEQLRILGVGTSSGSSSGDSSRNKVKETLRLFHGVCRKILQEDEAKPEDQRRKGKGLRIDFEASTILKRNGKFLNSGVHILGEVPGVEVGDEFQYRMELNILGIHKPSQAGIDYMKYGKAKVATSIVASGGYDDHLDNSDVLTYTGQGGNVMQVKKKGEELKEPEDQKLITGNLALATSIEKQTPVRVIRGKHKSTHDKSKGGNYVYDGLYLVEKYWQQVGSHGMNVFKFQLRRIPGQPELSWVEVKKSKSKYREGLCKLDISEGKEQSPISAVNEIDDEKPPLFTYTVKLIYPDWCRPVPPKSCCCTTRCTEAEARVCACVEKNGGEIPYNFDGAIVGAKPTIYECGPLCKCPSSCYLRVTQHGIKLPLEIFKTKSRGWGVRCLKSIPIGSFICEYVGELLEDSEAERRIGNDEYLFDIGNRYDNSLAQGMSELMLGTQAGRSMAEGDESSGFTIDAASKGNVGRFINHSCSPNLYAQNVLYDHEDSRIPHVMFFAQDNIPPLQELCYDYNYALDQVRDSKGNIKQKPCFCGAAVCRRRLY

[6] abbreviates: mC at 9,14,19,24 of strand 1 and 8,13,18,23 of strand 2.

For “GATGATGTCGATTCGATTCGATTCGATATGATG (double strand) [unmethylated CG probe (CG3/CG4)]”, the binding result in data set [1], in data set [2] and in data set [3] was “binds more weakly” throughout.
Regarding “GATGATGTCTGATCTGATCTGATCTGAATGATG (double strand) [unmethylated CHG probe (CHG3/CHG4)]”, the binding result in data set [4], in data set [5] and in data set [3] was “binds more weakly” throughout.
Take “GATGATGTCTGATCTGATCTGATCTGAATGATG (double strand) [methylated CHG probe (CHG1/CHG2)]”: the binding result in data set [4] (setting [6]), in data set [5] (setting [6]) and in data set [3] (setting [6]) was “binds” each time.
